Assay results reported in article PMC7862700.
This is a selection; strong and weak results do not stand in their true shares. For some of these results: At the low end of the ranking the order means little. The list shows a part of the results. For some of these results: The exact form of the protein is not confirmed.

Amino acid sequences for entries named in this document (tags omitted). A change or cut given only in a name is not applied to a line headed by its entry.
UniProt Q00613: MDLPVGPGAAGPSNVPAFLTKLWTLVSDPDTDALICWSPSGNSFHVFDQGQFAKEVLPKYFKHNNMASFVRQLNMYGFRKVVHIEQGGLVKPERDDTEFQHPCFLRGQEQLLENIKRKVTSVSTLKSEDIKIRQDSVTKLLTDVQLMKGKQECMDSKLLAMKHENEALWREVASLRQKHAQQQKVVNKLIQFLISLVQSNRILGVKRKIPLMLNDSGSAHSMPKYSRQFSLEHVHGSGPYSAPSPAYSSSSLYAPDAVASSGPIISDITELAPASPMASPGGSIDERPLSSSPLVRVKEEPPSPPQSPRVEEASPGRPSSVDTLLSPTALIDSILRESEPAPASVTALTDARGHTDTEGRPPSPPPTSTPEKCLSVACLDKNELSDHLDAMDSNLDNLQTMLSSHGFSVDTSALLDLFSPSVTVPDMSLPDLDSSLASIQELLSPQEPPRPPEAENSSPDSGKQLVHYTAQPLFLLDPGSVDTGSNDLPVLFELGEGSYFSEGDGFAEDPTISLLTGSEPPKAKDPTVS

Legend:
HSF1 = HSF1 (UniProt Q00613); test: DAPPL (digital affinity profiling via proximity ligation, sequencing); conditions: 10 mM Tris-HCl pH 7.5, 50 mM NaCl, 1 mM DTT, 4% glycerol, room temperature, 30 min; GST-TFs on glutathione beads, 16-mer random dsDNA library, 0.1% …; high values mean tight binding; double strand, one strand shown; scale: fold enrichment (6-mer frequency, TF over GST control)
ELF2 = target: T1, ELF2 (UniProt Q15723); test: as above; conditions: 10 mM Tris-HCl pH 7.5, 50 mM NaCl, 1 mM DTT, 4% glycerol, room temperature, 30 min; GST-TFs on glutathione beads, 16-mer random dsDNA library, 0.1% …; high values mean tight binding; double strand, one strand shown; scale: fold enrichment (6-mer frequency, TF over GST control)
T1 sequence: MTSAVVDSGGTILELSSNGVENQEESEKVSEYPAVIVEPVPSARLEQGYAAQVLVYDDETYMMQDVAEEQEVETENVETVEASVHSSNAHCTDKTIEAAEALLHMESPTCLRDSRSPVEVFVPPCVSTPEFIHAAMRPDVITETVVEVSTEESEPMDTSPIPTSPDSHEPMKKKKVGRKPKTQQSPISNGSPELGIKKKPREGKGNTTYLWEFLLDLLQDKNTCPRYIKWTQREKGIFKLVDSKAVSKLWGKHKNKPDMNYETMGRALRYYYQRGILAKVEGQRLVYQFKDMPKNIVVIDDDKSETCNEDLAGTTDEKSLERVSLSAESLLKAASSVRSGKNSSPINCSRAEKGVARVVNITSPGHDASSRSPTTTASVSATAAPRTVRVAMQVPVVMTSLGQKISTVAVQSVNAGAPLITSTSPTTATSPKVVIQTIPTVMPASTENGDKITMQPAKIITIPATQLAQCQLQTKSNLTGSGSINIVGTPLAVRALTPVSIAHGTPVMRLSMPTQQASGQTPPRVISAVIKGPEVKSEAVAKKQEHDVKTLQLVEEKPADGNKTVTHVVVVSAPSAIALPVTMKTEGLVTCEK

Sequence | binding signal (HSF1) | binding signal (ELF2)
AGATGG | 0.974 | 0.8
GCCCGG | 0.678 | 1.07
TGCCAT | 0.909 | 1.06
GCTCTC | 1.42 | 1.36
GTTTAT | 1.14 | 1.08
AGTACG | 0.754 | 0.979
GCCGGA | 0.522 | 1.25
GCAGCC | 0.725 | 0.986
GAAACC | 0.807 | 1.09
AAGGCC | 0.83 | 0.863
GGTCAC | 0.737 | 0.948
ACCCTG | 0.94 | 0.996
GTGTCC | 0.684 | 1.04
GTATGG | 0.839 | 1
AGCTCT | 1.25 | 1.15
CCTTAA | 1.62 | 1.3
TGAAGG | 0.928 | 0.883
GCGCAC | 0.69 | 0.916
GTTGTT | 0.953 | 1.11
CGTCAC | 0.924 | 1.16
AGCGTC | 0.877 | 1.03

2 consecutive entries from above:
Sequence | binding signal (HSF1) | binding signal (ELF2)
GAAACC | 0.807 | 1.09
AAGGCC | 0.83 | 0.863

(list continues)

Sequence | binding signal (HSF1) | binding signal (ELF2)
TAACAG | 1.02 | 1.02
GCAGAT | 0.958 | 0.867
TCATCG | 1.12 | 0.911
CGAGGT | 0.912 | 0.917
TTTCGG | 1.39 | 1.14
TATATT | 1.58 | 1.45
CCGCCA | 0.994 | 1.3
CAGCAC | 0.825 | 0.893
TGAGCT | 1.06 | 0.988
GCGCGC | 0.946 | 1.05
TCATAC | 0.904 | 1.07
TGCCAC | 0.881 | 1.13
CGACTG | 1.02 | 0.976
ACACAT | 0.958 | 1.24
AGCAGA | 0.994 | 0.904
CGGCAA | 0.78 | 0.938
CGATGT | 0.952 | 1.05
AAACTG | 1.01 | 1.09
CACCAC | 0.822 | 1.12
TGCCCT | 0.999 | 1.06
